# Results of single-concentration screens

Chains of the proteins cited; added tags and fusions are not shown. Residues count along the entry.
UniProt P9WPC5, whole entry: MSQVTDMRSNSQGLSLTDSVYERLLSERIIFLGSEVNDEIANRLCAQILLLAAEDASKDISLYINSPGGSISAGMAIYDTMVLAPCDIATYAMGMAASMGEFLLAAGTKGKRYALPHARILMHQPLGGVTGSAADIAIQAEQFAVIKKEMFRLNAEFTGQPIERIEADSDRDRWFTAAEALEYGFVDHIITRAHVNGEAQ
UniProt P9WPC3, whole entry partner: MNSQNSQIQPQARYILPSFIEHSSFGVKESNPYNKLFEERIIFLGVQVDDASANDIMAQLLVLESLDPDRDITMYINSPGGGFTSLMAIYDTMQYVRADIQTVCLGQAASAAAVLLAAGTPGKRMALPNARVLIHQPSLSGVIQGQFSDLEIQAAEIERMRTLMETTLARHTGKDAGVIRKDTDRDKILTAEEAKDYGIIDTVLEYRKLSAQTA
UniProt Q8IDJ8, 1-583: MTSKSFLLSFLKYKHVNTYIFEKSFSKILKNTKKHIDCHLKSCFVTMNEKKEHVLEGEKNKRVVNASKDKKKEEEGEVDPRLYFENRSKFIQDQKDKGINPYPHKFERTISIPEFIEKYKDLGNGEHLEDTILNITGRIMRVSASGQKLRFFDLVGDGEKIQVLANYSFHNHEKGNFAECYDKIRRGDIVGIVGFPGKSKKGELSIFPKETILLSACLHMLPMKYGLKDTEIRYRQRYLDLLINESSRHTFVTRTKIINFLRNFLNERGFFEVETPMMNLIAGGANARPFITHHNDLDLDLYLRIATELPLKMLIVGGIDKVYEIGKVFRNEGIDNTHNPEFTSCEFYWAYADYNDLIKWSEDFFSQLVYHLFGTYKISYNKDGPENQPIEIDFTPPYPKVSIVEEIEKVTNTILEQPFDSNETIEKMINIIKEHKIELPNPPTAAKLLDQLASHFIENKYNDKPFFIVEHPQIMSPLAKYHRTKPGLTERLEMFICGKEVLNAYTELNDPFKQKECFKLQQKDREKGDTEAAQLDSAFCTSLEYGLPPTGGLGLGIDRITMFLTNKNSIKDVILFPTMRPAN
UniProt P9WFT3, whole entry: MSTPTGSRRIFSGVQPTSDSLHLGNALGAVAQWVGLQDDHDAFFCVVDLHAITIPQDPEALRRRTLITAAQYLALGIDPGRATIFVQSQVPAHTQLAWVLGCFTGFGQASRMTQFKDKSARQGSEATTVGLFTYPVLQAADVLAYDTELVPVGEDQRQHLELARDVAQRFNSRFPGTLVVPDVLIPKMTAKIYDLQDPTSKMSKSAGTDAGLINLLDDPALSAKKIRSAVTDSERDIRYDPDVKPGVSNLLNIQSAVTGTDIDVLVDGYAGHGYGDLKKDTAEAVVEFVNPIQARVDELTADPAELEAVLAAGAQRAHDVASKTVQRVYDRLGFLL
UniProt A4I591, 1-473: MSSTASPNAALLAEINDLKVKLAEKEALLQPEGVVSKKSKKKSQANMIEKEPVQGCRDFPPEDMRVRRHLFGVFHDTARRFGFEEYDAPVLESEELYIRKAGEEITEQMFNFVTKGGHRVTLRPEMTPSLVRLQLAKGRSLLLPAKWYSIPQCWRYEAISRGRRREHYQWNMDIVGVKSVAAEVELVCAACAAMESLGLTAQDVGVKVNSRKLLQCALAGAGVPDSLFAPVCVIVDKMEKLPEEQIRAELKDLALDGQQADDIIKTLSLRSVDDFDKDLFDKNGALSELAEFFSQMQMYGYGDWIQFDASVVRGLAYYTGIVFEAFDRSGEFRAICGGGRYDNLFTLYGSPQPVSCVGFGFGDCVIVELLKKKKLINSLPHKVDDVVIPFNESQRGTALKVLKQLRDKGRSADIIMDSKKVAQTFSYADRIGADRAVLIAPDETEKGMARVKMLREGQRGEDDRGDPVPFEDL
UniProt Q4DA54, 1-478: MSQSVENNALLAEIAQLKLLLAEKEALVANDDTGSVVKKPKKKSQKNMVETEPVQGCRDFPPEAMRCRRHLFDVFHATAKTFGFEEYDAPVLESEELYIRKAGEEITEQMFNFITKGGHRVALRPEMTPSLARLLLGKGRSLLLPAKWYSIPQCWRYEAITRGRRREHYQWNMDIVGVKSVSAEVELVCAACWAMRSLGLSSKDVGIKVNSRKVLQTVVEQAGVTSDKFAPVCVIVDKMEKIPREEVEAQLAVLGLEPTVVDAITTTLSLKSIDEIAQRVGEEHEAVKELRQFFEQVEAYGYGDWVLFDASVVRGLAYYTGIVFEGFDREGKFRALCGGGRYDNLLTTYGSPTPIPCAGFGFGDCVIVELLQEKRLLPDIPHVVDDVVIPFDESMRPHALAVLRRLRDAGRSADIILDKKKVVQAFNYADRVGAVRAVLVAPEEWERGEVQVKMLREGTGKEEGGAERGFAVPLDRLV

Each number is a percent effect as filed. The controls that fix the scale are not given in the record; negative values are as filed. Compounds were drawn at random from those tested, without regard to their results.

A: 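Protease assay of ClpP1P2, read by the AMC dye that it sets free. Target: ClpP1P2, Mycobacterium tuberculosis (UniProt P9WPC5 and UniProt P9WPC3). Tested at 50 µM. Higher reads as stronger inhibition, judged from the few compounds that gave an IC50. Most other retested compounds had strongly negative values. About 69,000 compounds were tested under these conditions; 0.015% (about 10) showed 50% or more at least once.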
B: 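Enzyme assay of the cytosolic lysyl-tRNA synthetase in 384-well plates, read by luminescence. Target: Lysine-tRNA ligase, Plasmodium falciparum 3D7 (UniProt Q8IDJ8). Concentration: 30 µM. Higher reads as stronger inhibition, judged from the few compounds that gave an IC50. About 69,000 compounds were tested under these conditions; 0.071% (about 49) showed 50% or more at least once.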
C: 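Tryptophan-tRNA ligase, Mycobacterium tuberculosis (UniProt P9WFT3). Enzyme assay of tryptophanyl-tRNA synthetase; the read-out is not stated. Concentration: 10 µM. Direction is not recorded; retested compounds ran higher, which suggests that high means inhibition. About 65,000 compounds were tested under these conditions; 0.098% (about 64) showed 50% or more at least once.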
D: 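Enzyme assay of histidyl-tRNA synthetase; the read-out is not stated. Target: Histidine-tRNA ligase, Leishmania infantum (UniProt A4I591). Concentration: 30 µM. Higher reads as stronger inhibition (inferred: compounds with an IC50 in retests scored well above the rest). The assay is labelled LdHisRS but filed under L. infantum. Of about 69,000 compounds tested this way, about 410 (0.6%) reached 50% or more in at least one test.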
E: 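Enzyme assay of histidyl-tRNA synthetase; the read-out is not stated. Target: Histidine-tRNA ligase, Trypanosoma cruzi CL Brener (UniProt Q4DA54). Tested at 30 µM. Direction is inferred from retests: higher values go with stronger inhibition. Of about 69,000 compounds tested this way, about 31 (0.045%) reached 50% or more in at least one test.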
F: 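Cell assay of Leishmania donovani living inside macrophages; the read-out is not stated. Tested at 30 µM. Direction is inferred from retests: higher values go with stronger inhibition. About 69,000 compounds were tested under these conditions; 1.5% (about 1,000) showed 50% or more at least once.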

compound: O=C(O)CC1COCCN1Cc1ccccc1OCCc1ccccc1 (centres undefined)
A: 18.71
B: -0.7774
C: 0.4078
D: 12.64
E: 6.186
F: 34.03

compound: Cc1csc(CNC(=O)Nc2cc(C(F)(F)F)c[nH]c2=O)n1
A: -7.046
B: 5.335
C: -0.000009
D: 8.654
E: 4.878
F: 28.84

compound: O=C1CCC2(CCNCC2)CN1Cc1nnc2ccccn12
A: -4.118
B: 5.785
C: 2.449
D: 23.01
E: 3.571
F: -5.546

compound: O=C(c1cccnc1O)N1CCOC(Cc2cccc(C(F)(F)F)c2)C1 (centres undefined)
A: -7.305
B: -2.544
C: 13.5
D: 14.04
E: 2.186
F: 22.33

compound: Cc1cc(N2CCCCC2)nc(N(CCO)CCO)c1C#N
A: -6.64
B: 3.602
C: 2.771
D: 12.09
E: 5.155
F: -10.91

compound: Cc1cc(Nc2cnccn2)nc(C2CCCN(CCO)C2)n1 (centres undefined)
A: -4.989
B: 1.846
C: 0.3903
D: 8.511
E: 7.895
F: 56.31

compound: COCCN(C)C(=O)Cn1cccc(OC)c1=O
A: -2.077
B: 5.774
C: 4.359
D: 104.8
E: 3.306
F: -1.989

compound: Cc1ccc(NC(=O)N2CCOC(C)(c3cnn(C)c3)C2)c(C)c1 (centres undefined)
A: -10.69
B: 5.844
C: -0.6744
D: 8.901
E: 4.813
F: 12.13

compound: CC(C)CN1CCC2(CCCNC2)C1=O.Cl (centres undefined)
F: 11.97

compound: Cc1cc(C)n(CC2CN(CC(=O)NC3CCCCC3)CCO2)n1 (centres undefined)
A: -4.547
B: 0.2088
C: -3.7
D: 17.39
E: 6.322
F: 20.89

compound: Nc1nc2c(c(N3CCOCC3)n1)CCN(C(=O)c1ccc[nH]1)CC2
A: -0.01248
B: 0.704
C: 5.161
D: 3.191
E: 2.02
F: -7.943

compound: COc1ccc(OCc2cc(C(=O)N3CCOCC3)n[nH]2)c(Cl)c1
A: -18.85
B: 2.459
C: -0.4946
D: 5.66
E: 0.8333
F: -7.423

compound: Cc1ccc(CN2C[C@@H]3CN(c4ncccn4)C[C@@H]3C2)cc1
A: -1.879
B: -0.64
C: 0.6342
D: 14.04
E: 2.151

compound: O=C(NCC1CCOCC1)[C@@H]1CC[C@@H]2[C@@H](CCN2Cc2ccncc2)O1
A: -7.216
B: 6.274
C: -2.087
D: 31.94
E: 7.477

compound: O=C(O)C(F)(F)F.[H][C@@]12CCCO[C@]1([H])[C@H](NC(=O)c1ccnnc1)CN(c1ncccn1)C2
F: 2.365

compound: Cc1ccc(S(=O)(=O)NCc2cccc(C(=O)N3CCCC3)c2)cc1F
A: -9.695
B: 0.6163
C: -1.988
D: 18.8
E: 5.983
F: 17.33

compound: COc1cc(C2CC(=O)Nc3c2nc2n3CCCC2)cc(OC)c1O (centres undefined)
A: -21.31
B: 15.99
C: 1.743
D: 22.35
E: 2.242
F: 11.23

compound: O=C(NC[C@]1(O)CN(Cc2ncccc2F)C[C@H]1O)c1cc[nH]n1
A: -30.96
B: 0.2499
C: 15.71
D: 0
E: -0.2857
F: -19.34

2 of the entries, repeated:

{"compound": "Nc1nc2c(c(N3CCOCC3)n1)CCN(C(=O)c1ccc[nH]1)CC2", "A": -0.01248, "B": 0.704, "C": 5.161, "D": 3.191, "E": 2.02, "F": -7.943}
{"compound": "COc1cc(C2CC(=O)Nc3c2nc2n3CCCC2)cc(OC)c1O", "stereo": "centres undefined", "A": -21.31, "B": 15.99, "C": 1.743, "D": 22.35, "E": 2.242, "F": 11.23}

Measurements from “University of Dundee, Small-Polar-MMV Screening Library” (2021), ChEMBL document CHEMBL3988442.